The list shows a part of the results. The data scatter; read single values as rough.
What follows are targets tested with ClCC(=O)N[C@H]1CCCc2ccccc12 (assay: log2 mean competition ratio of IA-DTB cysteine labelling (DMSO/compound) (log2 ratio); higher = stronger cysteine engagement by compound). Conditions: 50 µM; treatment time: 4 h; cell line lysate: HEK293T.
Description: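 IA-DTB competitive cysteine chemoproteomics in HEK293T RIPA lysate. Lysates were treated with compound 29 or 30 at 50 or 200 µM for 4 h, then IA-DTB (500 µM, 1 h), trypsin-digested, NeutrAvidin-enriched and analysed by diaPASEF. Competition ratio = intensity DMSO / intensity compound (n=4 treated, n=64 DMSO); binding: mean log2 CR ≥ 1 and p ≤ 0.05 plus QC filters. Target is the cysteine site.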

Target	log2 mean competition ratio
DOCK1 C595 (UniProt Q14185)	-0.0317
DENND4A C1579 (UniProt Q7Z401)	-0.322
DHX37 C680 (UniProt Q8IY37)	0.0604
DNAJB4 C175 (UniProt Q9UDY4)	-0.426
DNAJC2 C276 (UniProt Q99543)	-0.241
DNMT1 C1339 (UniProt P26358)	-0.684
DMD C3319 (UniProt P11532)	0.933
DPYD C671 (UniProt Q12882)	-0.317
DLG1 C378 (UniProt Q12959)	0.174
DEPDC7 C129 (UniProt Q96QD5)	-0.448
DHX29 C990 (UniProt Q7Z478)	0.147
DENND4C C763 (UniProt Q5VZ89)	-0.129
DICER1 C1406 (UniProt Q9UPY3)	0.326
DIAPH3 C195 (UniProt Q9NSV4)	0.372
DHX40 C153 (UniProt Q8IX18)	0.137
DHX30 C484 (UniProt Q7L2E3)	-0.148
DHX40 C470 (UniProt Q8IX18)	-0.0764
DOHH C273 (UniProt Q9BU89)	-0.0217
DNTTIP2 C484 (UniProt Q5QJE6)	0.264
DENND4A C1698 (UniProt Q7Z401)	0.0596

Same assay, conditions: 200 µM; treatment time: 4 h; cell line lysate: HEK293T

Target	log2 mean competition ratio
DOCK1 C595 (UniProt Q14185)	-0.0986
DENND4A C1579 (UniProt Q7Z401)	0.267
DHX37 C680 (UniProt Q8IY37)	-0.0221
DNAJB4 C175 (UniProt Q9UDY4)	-0.0537
DNAJC2 C276 (UniProt Q99543)	0.0298
DNMT1 C1339 (UniProt P26358)	-0.15
DMD C3319 (UniProt P11532)	0.199
DPYD C671 (UniProt Q12882)	0.0449
DLG1 C378 (UniProt Q12959)	0.0207
DEPDC7 C129 (UniProt Q96QD5)	-0.108
DHX29 C990 (UniProt Q7Z478)	0.158
DENND4C C763 (UniProt Q5VZ89)	-0.0594
DICER1 C1406 (UniProt Q9UPY3)	-0.107
DIAPH3 C195 (UniProt Q9NSV4)	0.273
DHX40 C153 (UniProt Q8IX18)	0.494
DHX30 C484 (UniProt Q7L2E3)	-0.0442
DHX40 C470 (UniProt Q8IX18)	0.0542
DOHH C273 (UniProt Q9BU89)	0.128
DNTTIP2 C484 (UniProt Q5QJE6)	0.0614
DENND4A C1698 (UniProt Q7Z401)	0.127
